# At least one structure is not confirmed: it was looked up by name or label, or the drawing left a doubt.
# Key:
# [1] = test system: AVN conduction; assay: AV block duration after ACH bolus, direct AVN injection vs. intravenous, anesthetized canines; format: in vivo; settings: test dose delivered into AVN region, 7 canines
# Source text: (§1) This study evaluated the effect of locally administered acetylcholine (ACH) on AVN conduction and refractoriness properties during sinus rhythm and AF. Canines (n=7) were anesthetized, and instrumented to assess atrial and ventricular electrophysiology as well as arterial blood pressure. A custom drug delivery catheter was fixed into the AVN region using a combination of standard electrophysiological mapping techniques and image guided therapy via a cardiac navigation system.
# [2] = test system: AVN conduction and refractoriness; assay: Incremental ACH infusion into the AVN: ventricular rate during electrically induced AF, AVN refractoriness, intervals, blood pressure; format: in vivo, Canines
# Source text: as §1
# Subsequently, incremental doses of ACH starting at 10 ug/min were infused into the AVN until complete atrioventricular heart block (AVB) was observed.
structure (smiles),measurement,setting,value
"CC(=O)OCC[N+](C)(C)C [ACH, acetylcholine]",Heart block after ACH test dose via catheter in AVN region,[1],"complete, but fully reversible heart block in all 7 animals"
same,"AV, PR and AH intervals",[2]; ACH dose producing first AVB,prolonged
same,Atrioventricular heart block (AVB) production,[2]; incremental doses starting at 10 ug/min infused into the AVN,in a dose dependent manner

# From patent US8892197B2, “Method and apparatus to control conduction through the heart to treat cardiac conditions” (Medtronic, Inc., priority 2005, dated 2014)
